Binding data for 1 substance are collected here from article PMC6823245, “Positive Modulation of Angiotensin II Type 1 Receptor–Mediated Signaling by LVV–Hemorphin-7” (Frontiers in Pharmacology, 2019).

No constants are given. Whether binding was seen depends on the method and setting. Binding seen in cells or lysates may run through a third protein. Some binding calls cover weakened binding; strength is not graded here.

Assay [1] has as its target AT1R-RlucII (angiotensin II type 1 receptor fused to Renilla luciferase) (human) (UniProt P30556). The assay can be described thus: FRET or BRET; as a1, but cells pretreated with 10 µM irbesartan (AT1R antagonist) for 15 min at 37°C before 10 nM AngII, 10 µM LVV–hemorphin-7 or both for 30 min.
Assay [2] has the same target. Nature of the assay: FRET or BRET; live HEK293 cells coexpressing Rluc-fused receptor (donor) and Venus-Gαq or yPET–β-arrestin 2 (acceptor); dose–response (30 min, 37°C, PBS) and real-time kinetics; cells treated with AngII (thrombin for PAR1), LVV–hemorphin-7 or both; coelenterazine h 5 µM; ligand-induced BRET (540/480 nm ratio minus vehicle).

Consider “yPET–β-arrestin 2 (from UniProt P32121 1-409)”, for which the figures for the binding result in assay [1] and in assay [2] were “no binding (condition: with 10 µM irbesartan)” and “binds”, respectively.
